Experimental data as given in article PMC11785928.
Results are given in words; binding and its absence hold for the method and conditions named. Binding seen in cells or lysates may run through a third protein. A yes stands for co-enrichment or nearness to the bait. Other partners may have been found.

By UniProt entry, the sequences of proteins in these tests, tags left out.
UniProt Q96PU5: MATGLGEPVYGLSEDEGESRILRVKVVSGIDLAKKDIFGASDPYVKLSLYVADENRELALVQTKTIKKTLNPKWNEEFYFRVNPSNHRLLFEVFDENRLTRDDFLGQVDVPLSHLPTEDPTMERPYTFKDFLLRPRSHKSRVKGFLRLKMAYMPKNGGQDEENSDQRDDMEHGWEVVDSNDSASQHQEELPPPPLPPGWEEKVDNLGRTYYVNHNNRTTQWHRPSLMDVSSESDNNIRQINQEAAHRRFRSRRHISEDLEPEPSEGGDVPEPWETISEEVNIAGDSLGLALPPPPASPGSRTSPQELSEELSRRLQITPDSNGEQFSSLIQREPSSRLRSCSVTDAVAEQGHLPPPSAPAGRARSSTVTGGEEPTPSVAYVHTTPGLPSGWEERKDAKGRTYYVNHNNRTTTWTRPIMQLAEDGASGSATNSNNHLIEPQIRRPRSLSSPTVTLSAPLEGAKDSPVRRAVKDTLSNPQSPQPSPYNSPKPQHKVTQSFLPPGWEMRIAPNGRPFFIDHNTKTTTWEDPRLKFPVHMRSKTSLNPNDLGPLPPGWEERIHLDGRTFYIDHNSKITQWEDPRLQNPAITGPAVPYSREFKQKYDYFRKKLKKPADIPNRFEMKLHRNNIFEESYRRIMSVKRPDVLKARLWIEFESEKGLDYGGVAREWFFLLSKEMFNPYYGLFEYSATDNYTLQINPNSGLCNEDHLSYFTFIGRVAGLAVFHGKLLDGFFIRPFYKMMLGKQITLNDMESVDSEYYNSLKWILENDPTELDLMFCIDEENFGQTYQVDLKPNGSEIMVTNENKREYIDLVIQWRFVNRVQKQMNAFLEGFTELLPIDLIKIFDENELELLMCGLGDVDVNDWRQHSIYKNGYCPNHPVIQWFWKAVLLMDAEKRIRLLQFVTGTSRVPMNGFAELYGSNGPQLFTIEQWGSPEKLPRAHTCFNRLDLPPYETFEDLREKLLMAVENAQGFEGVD

Target: FLAG-tagged NEDD4L (neural precursor cells expressed developmentally downregulated 4-like protein), stably expressed in HCT116 cells (UniProt Q96PU5)
Experiment: affinity purification with mass spectrometry; interaction MS analysis in HCT116 cells stably expressing FLAG-tagged NEDD4L

solute carrier family 3 member 2 (SLC3A2), endogenous in HCT116 cells (from UniProt P08195 1-529)
binding: binds
